# According to PubChem BioAssay AID2685 (National Center for Advancing Translational Sciences (NCATS), 2010):
# The other results are listed elsewhere or left out. These are further read-outs of the screen, such as a control signal, another cell line or another target. No call is given for them. Compounds called inactive in the main read-out are mostly missing here. The note in brackets gives the kind of curve behind each potency; many fits are weak.
# Experiment: qHTS Assay for Lipid Storage Modulators in Drosophila S3 Cells;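 for cell number change: cells counted by Cell Tracker Red CMTPX staining in the red channel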
# Settings: BODIPY lipid droplet fluorescence, 18-24 h; for cell number change: measured here: cell count max response, cells fed with added oleic acid
# Outline: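 Laser-scanning cytometry quantifies lipid droplet accumulation (500–530 nm total intensity; droplet/cell object ratio) in oleic acid-fed (400 uM added) Drosophila S3 cells treated with a concentration series. 20 uM Triacsin C defined 100% inhibition.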
# [1] = measured here: cell number channel AC50, cells fed with added oleic acid
# [2] = measured here: lipid fluorescence (Fed channel) AC50, cells fed with added oleic acid
SMILES,AC50 [1],AC50 [2],cell number change [%]
Cc1nn(Cc2cccc(C(=O)N3N=C(C(F)F)CC3(O)C(F)F)c2)c(C)c1[N+](=O)[O-] (configuration not stated),"2.06 µM [rising, partial curve]","6.51 µM [rising, full curve, poor fit]",
COc1ncccc1C(=O)N1CCCC(N2CCN(c3cccc(Cl)c3)CC2)C1 (configuration not stated),,"0.651 µM [rising, full curve]",18.5
O=C(CN1CCN(S(=O)(=O)c2ccc(Cl)cc2)CC1)Nc1ccc2c(c1)OCCO2,,,11.5
Cc1ccc(C2CC(C(F)(F)F)n3ncc(C(N)=O)c3N2)cc1 (configuration not stated),,"16.4 µM [rising, partial curve]",-16.8
CCn1c2ccccc2c2cc(NC(=O)COC(=O)c3cc(S(=O)(=O)N4CCCCC4)ccc3Cl)ccc21,,,4.47
CNc1nc(SCc2ccc(C)cc2)nc2c1CCCC2,"8.2 µM [falling, partial curve, poor fit]",,-35.1
Cn1c(=O)c2c(ncn2CC(=O)OCC(=O)Nc2ccc(F)cc2F)n(C)c1=O,,"2.31 µM [rising, single point]",-10
CCCCCCCN=CC1=C(O)CC(c2ccccc2)CC1=O (configuration not stated),,"14.6 µM [rising, single point]",2.59
Cc1ccc(CNC(=O)c2ccc(N3CCC4(CC3)CC(c3cccc(Br)c3)=NO4)c(N)c2)cc1,,"0.146 µM [falling, partial curve]",-4.55
O=C(Nc1cccc(-c2cnc3ccccc3n2)c1)c1cccc(NC(=O)c2ccco2)c1,"25.9 µM [falling, single point]",,-152
CC1(C)CCC(=O)N2CC[C@H]3C[C@H](OC(=O)Nc4ccccc4)C[C@@H]1[C@H]32,,"0.731 µM [rising, full curve]",1.94
CCCSc1nc2c(c(=O)[nH]c(=O)n2C)n1CCc1ccccc1,,"0.651 µM [falling, full curve, poor fit]",-23.6
Cc1nc2ccccc2nc1OCC(=O)NCC(F)(F)F,,"13 µM [falling, partial curve, poor fit]",-6.12
O=C(NCCc1c[nH]c2ccccc12)c1cc2sccc2n1Cc1ccccc1,"10.3 µM [falling, partial curve]","5.8 µM [falling, partial curve]",-65.9
CCCN(CCC)C(=O)CC(c1ccccc1)c1ccc(C)cc1O (configuration not stated),,,-13.1
CCC(C)[C@H](NC(=O)[C@H](Cc1ccccc1)n1c(=O)[nH]c2ccccc2c1=O)C(=O)NCC1CCC(C(=O)O)CC1 (some centres not stated),,"3.66 µM [falling, single point]",12
COCc1[nH][nH]c(=O)c1C=Nc1ccc(Oc2ccccc2)cc1,,,89
COc1ccc(CCN2C(=O)CC(Sc3ncccc3C(=O)O)C2=O)cc1OC (configuration not stated),"0.651 µM [falling, full curve, poor fit]","25.9 µM [falling, single point]",-29.5
Cc1c(C(=O)c2ccc(Cl)c([N+](=O)[O-])c2)c2ccccn2c1CCC#N,"6.51 µM [falling, single point]","25.9 µM [falling, single point]",32.3

# Another view of part of the listing above.
SMILES	AC50 [1]	AC50 [2]	cell number change [%]
Cc1nn(Cc2cccc(C(=O)N3N=C(C(F)F)CC3(O)C(F)F)c2)c(C)c1[N+](=O)[O-] (configuration not stated)	2.06 µM [rising, partial curve]	6.51 µM [rising, full curve, poor fit]	
CC1(C)CCC(=O)N2CC[C@H]3C[C@H](OC(=O)Nc4ccccc4)C[C@@H]1[C@H]32		0.731 µM [rising, full curve]	1.94
CCCN(CCC)C(=O)CC(c1ccccc1)c1ccc(C)cc1O (configuration not stated)			-13.1

# More compounds

SMILES,AC50 [1],AC50 [2],cell number change [%]
CCCCOCCCn1c(-c2ccco2)nc2nc3ccccc3nc21,,"29.1 µM [falling, single point]",-28.6
CCC(C)NC(=O)c1cn(CC)c2cc(N3CCN(C(=O)c4ccco4)CC3)c(F)cc2c1=O (configuration not stated),"20.6 µM [falling, partial curve]","1.16 µM [falling, partial curve, poor fit]",-86.5
CC(C)(C)NC(=O)C(=O)NNC(=O)COc1ccc(Br)cc1,"0.00461 µM [falling, full curve, poor fit]",,-21.2
CCCn1c(SCc2ccc(Cl)cc2)nc2c1c(=O)[nH]c(=O)n2C,,"16.4 µM [rising, single point]",0.417
Cc1[nH]n(-c2ccccc2)c(=O)c1C(C[N+](=O)[O-])c1ccc(F)cc1 (configuration not stated),"5.17 µM [falling, partial curve]","5.8 µM [falling, single point]",-36.8
O=C(/C=C/c1cccs1)NCc1cccnc1,"0.731 µM [falling, full curve, poor fit]","6.51 µM [rising, single point]",-20.2
CCOC(=O)c1cnn(-c2ccc(C)cc2)c1N,"0.206 µM [rising, full curve, poor fit]",,
COc1ccc(C(=O)NNc2ccccc2)cc1,"6.51 µM [falling, single point]","0.00411 µM [rising, full curve, poor fit]",13.4
CC1CCCC(NC(=O)CCNC(=O)c2ccc([N+](=O)[O-])cc2)C1C (configuration not stated),,,10.8
COc1ccccc1OCCC(=O)OCC(=O)Nc1cc(S(=O)(=O)N2CCOCC2)ccc1Cl,,,-6.63
CC(C)Sc1nc2ccccc2n1CC(=O)O,,"29.1 µM [rising, single point]",0.825
Cc1cc(C)nc(N(C#N)CN2C(=O)c3ccccc3C2=O)n1,,"6.51 µM [falling, single point]",-19.1
O=C(CCN1C(=O)C2C3C=CC(C3)C2C1=O)N1CCN(c2cccc(Cl)c2)CC1 (configuration not stated),,,9.62
CC(=O)Nc1nc2c(C)cc(NC(=O)C3CCCCC3)cc2s1,"29.1 µM [rising, single point]","5.17 µM [rising, single point]",132
O=C(NNc1ccccn1)c1ccccc1CC[N+](=O)[O-],,"25.9 µM [rising, single point]",17.8
CCC(=O)N1CCc2cc(S(=O)(=O)NCCC(=O)NCc3ccccc3OC)ccc21,,"29.1 µM [rising, single point]",
O=C(Cc1cccc2ccccc12)Nc1cc(Cl)ccc1C(=O)O,,,10.2
O=C(NCc1nc2ccccc2[nH]1)C1=C[C@H](c2ccc3c(c2)OCO3)C[C@H](OCCCCO)O1,,"0.00461 µM [rising, full curve]",18.7
